Experimental data taken from publication PMC5945835.
Results are given in words; binding and its absence hold for the method and conditions named. A result given as binding can be weak or reduced; the word gives no strength.

Key:
[1] = target: BlRGA (Betula luminifera); experiment: two-hybrid; Matchmaker Golden Yeast Two-Hybrid System; BD fusions in Y2HGold and AD fusions in Y187, yeast mating; growth on SD-Leu-Trp-His-Ade plates with 40 ug/ml X-alpha-gal and 125 ng/ml Aureobasidin A, dilutions to 10^-1 and 10^-2
[2] = target: BlRGL (Betula luminifera); experiment: as above

Row | Substance | binding [1] | binding [2]
1 | BlSPL1 (from UniProt L7X457) | binds | binds
2 | BlSPL2 (from UniProt A0A2I6SES7) | binds weakly | binds
3 | BlSPL16 (from UniProt A0A2I6SEU8) | no binding | binds weakly

Next, values leading:

Row | binding [1] | binding [2] | Substance
4 | binds | binds | BlSPL5 (from UniProt A0A2I6SEU2)
5 | binds | no binding | BlSPL6 (from UniProt A0A2I6SEU0)
6 | binds | binds | BlSPL18 (from UniProt A0A2I6SEV6)
